Experimental findings from publication PMC8594432 (Dalton Transactions (Cambridge, England : 2003), 2021) are described below.

This data set can be described thus: peptide synthesis. The note with it: conjugation step.

Some peptides are written in HELM: one residue between dots, names in brackets for other building blocks, links after the first $.

“PEPTIDE1{R.G.D.[dF].K}|CHEM1{[DP]}$PEPTIDE1,PEPTIDE1,1:R1-5:R2|PEPTIDE1,CHEM1,5:R3-1:R2$$$V2.0” yielded a conjugation yield of 86%. The “final HPLC purity” value (analytical HPLC, UV detection at 220 nm or 254 nm) is ≥95%.
